# From the supplement of paper PMC12889115
# The list shows a part of the results. These are raw signals, not scaled to a control.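 Primary screen: polymyxin B was added at a level permeabilizing Salmonella outer membranes while sparing inner membranes. DMSO wells, both with and without polymyxin B, established maximum growth. Plate-to-plate variation meant each plate was ranked on its own, and the lowest-OD600 compounds were selected as hits.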
# System: Salmonella enterica serovar Typhimurium SL1344
# Experiment: bacterial growth OD600 after 18 h with compound and polymyxin B; higher = more bacterial growth (less inhibition)
# Settings: 50 µM, Mueller-Hinton broth
smiles,measurement,setting,value
CN(c1ccc(-c2nc(COc3ccccc3)no2)cn1)C1CCOCC1,bacterial growth OD600,polymyxin B 1 µg/mL,0.867
COCc1ccc(C(=O)N2CCc3onc(-c4cccc(F)c4)c3C2)s1,bacterial growth OD600,polymyxin B 0.75 µg/mL,0.002
O=C(Nc1ccccc1Cl)Nc1ccnn1C1CCN(C(=O)C2CC2)CC1,bacterial growth OD600,polymyxin B 0.75 µg/mL,0.914
Cc1nc(CN(C)C(=O)c2cnn(-c3ncc(C)c(-c4ccc(F)cc4)n3)c2C(C)C)cs1,bacterial growth OD600,polymyxin B 0.75 µg/mL,0.868
CC(C)S(=O)(=O)c1ncc(CN(C)C2CCOCC2)n1CCc1ccccc1,bacterial growth OD600,polymyxin B 1 µg/mL,1
OCC1(Cc2ccc(F)cc2)CCCN(Cc2cccc(Cl)c2)C1 (stereo not given),bacterial growth OD600,polymyxin B 0.75 µg/mL,0.01
COc1ccc(CCNC(=O)CCC2(Cc3ccc(F)c(OC)c3)CCC(=O)N2)c(OC)c1 (stereo not given),bacterial growth OD600,polymyxin B 0.75 µg/mL,0.835
c1cc(CN2CCCC2)ccc1CNc1nncc(-c2ccc3c(c2)OCO3)n1,bacterial growth OD600,polymyxin B 0.75 µg/mL,0.729
CCNC(=O)N1CCCC(Cc2ccc(F)cc2F)(C(=O)OCC)C1 (stereo not given),bacterial growth OD600,polymyxin B 1 µg/mL,0.836
COc1ccc(CN2CCC(n3nccc3NC(=O)C3CC3)CC2)c(Cl)c1OC,bacterial growth OD600,polymyxin B 1 µg/mL,0.812
Cc1ccccc1N1CCN(C(=O)c2ccc(OC3CCN(C(=O)C4CC4)CC3)cc2)CC1,bacterial growth OD600,polymyxin B 1 µg/mL,0.608
O=C(CCC1CCN(Cc2ccc(Cl)s2)CC1)N1CCN(c2ccccc2)CC1,bacterial growth OD600,polymyxin B 1 µg/mL,0.892
CCOC(=O)N1CCN(Cc2nc(-c3ccc(C)s3)oc2C)CC1,bacterial growth OD600,polymyxin B 0.75 µg/mL,0.758
C[C@@H]1CN(C2(C(=O)NCCc3cccnc3)Cc3ccccc3C2)C[C@H](C)O1,bacterial growth OD600,polymyxin B 0.75 µg/mL,0.78
CCN1CCN(C2(C(=O)N(C)CC(O)c3ccccc3)Cc3ccccc3C2)CC1 (stereo not given),bacterial growth OD600,polymyxin B 0.75 µg/mL,0.833
CC(C)n1cc(C(=O)NCc2ccccc2)c(=O)c(C(=O)N2CCN(c3ccc(F)cc3)CC2)c1,bacterial growth OD600,polymyxin B 0.75 µg/mL,0.715
COc1ccc(NC(=O)CCC2CCCN(C(=O)CCn3cnnn3)C2)cc1Cl (stereo not given),bacterial growth OD600,polymyxin B 1 µg/mL,0.989
COc1cc(C)ccc1OCc1nc(C(=O)N(C)C2CCCCC2)co1,bacterial growth OD600,polymyxin B 0.75 µg/mL,0.631
CCN(CC)C(=O)C1CCCN(Cc2nc(C3(c4ccc(C)cc4)CCCC3)no2)C1 (stereo not given),bacterial growth OD600,polymyxin B 1 µg/mL,0.471
COc1ccc(CCN2CCC(CN(C)C(=O)C3=C(C)OCCO3)CC2)cc1,bacterial growth OD600,polymyxin B 1 µg/mL,0.982
COc1cc(CC2(CCC(=O)NCCC3=CC[C@H]4C[C@@H]3C4(C)C)CCC(=O)N2)ccc1F (stereo not given in full),bacterial growth OD600,polymyxin B 0.75 µg/mL,0.895
CC(CCn1cccn1)N1CCc2onc(-c3ccc4c(c3)OCO4)c2C1 (stereo not given),bacterial growth OD600,polymyxin B 0.75 µg/mL,0.805
CC(C)S(=O)(=O)c1ncc(CN(C)CC2CCOCC2)n1CCc1ccccc1,bacterial growth OD600,polymyxin B 1 µg/mL,1.21
COc1ccc(CCNC(=O)CCN2Cc3ccccc3OC(c3ccccc3F)C2)cc1OC (stereo not given),bacterial growth OD600,polymyxin B 0.75 µg/mL,0.615
CC(C)N(Cc1nccn1C)C(=O)c1cc(COc2ccccc2F)[nH]n1,bacterial growth OD600,polymyxin B 0.75 µg/mL,0.891
CSc1ncccc1C(=O)N1CCCC(Nc2ccc(F)c(F)c2)C1 (stereo not given),bacterial growth OD600,polymyxin B 1 µg/mL,0.792
COc1ccc(CN2CCN(Cc3cccc(O)c3)CC2CCO)c(C)c1C (stereo not given),bacterial growth OD600,polymyxin B 1 µg/mL,0.859
C=CC[C@@H]1CC=C[C@@H](C)N1Cc1nc(-c2ccc3c(c2)OCO3)no1,bacterial growth OD600,polymyxin B 1 µg/mL,0.822
CCc1nc(C)c(CN(C)CC2CCCN(CCc3ccccc3C)C2)[nH]1 (stereo not given),bacterial growth OD600,polymyxin B 1 µg/mL,1
O=C(CCC1(Cc2ccc(-c3ccccc3)cc2)CCC(=O)N1)NCCc1ccccc1F (stereo not given),bacterial growth OD600,polymyxin B 0.75 µg/mL,0.003
CCOc1ccccc1CN1CCN(Cc2cccc3c2OCO3)CC1CCO (stereo not given),bacterial growth OD600,polymyxin B 1 µg/mL,1.16
C=C(C)CNC(=O)c1coc(COc2cccc(OC)c2)n1,bacterial growth OD600,polymyxin B 1 µg/mL,0.92
CCN(CCn1cccn1)Cc1cn(C)nc1-c1cccc(Cl)c1,bacterial growth OD600,polymyxin B 1 µg/mL,0.814
COc1cc(=O)n2c(c1C(=O)NC(C)c1ccco1)CCN(Cc1c(C)nc3sccn13)CC2 (stereo not given),bacterial growth OD600,polymyxin B 0.75 µg/mL,0.907
O=C(C1CCC1)N1CC[C@@H](N2CCN(CCc3ccccc3)CC2)[C@H](O)C1,bacterial growth OD600,polymyxin B 1 µg/mL,0.943

# 3 entries already listed, arranged by molecular weight, descending.
smiles,measurement,setting,value
CCN1CCN(C2(C(=O)N(C)CC(O)c3ccccc3)Cc3ccccc3C2)CC1 (stereo not given),bacterial growth OD600,polymyxin B 0.75 µg/mL,0.833
c1cc(CN2CCCC2)ccc1CNc1nncc(-c2ccc3c(c2)OCO3)n1,bacterial growth OD600,polymyxin B 0.75 µg/mL,0.729
CCNC(=O)N1CCCC(Cc2ccc(F)cc2F)(C(=O)OCC)C1 (stereo not given),bacterial growth OD600,polymyxin B 1 µg/mL,0.836
